This assay concerns the target T1, GFP-EB1 (tyrosinated EB1 with GFP at the N-terminus) (mouse) (UniProt Q61166).
T1 sequence: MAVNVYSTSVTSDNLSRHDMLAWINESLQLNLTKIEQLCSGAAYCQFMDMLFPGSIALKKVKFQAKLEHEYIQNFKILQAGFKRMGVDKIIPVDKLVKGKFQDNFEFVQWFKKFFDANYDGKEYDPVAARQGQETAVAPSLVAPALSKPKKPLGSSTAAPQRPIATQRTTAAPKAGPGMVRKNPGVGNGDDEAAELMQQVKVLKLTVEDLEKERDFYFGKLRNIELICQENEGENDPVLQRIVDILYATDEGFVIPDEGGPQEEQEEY
Description: co-IP; NIH3T3 lysate 48 h after transfection; mouse anti-GFP on protein G beads, 90 min at 4°C, 50 mM Tris pH 8.0, 150 mM NaCl, 0.04% deoxycholate, 0.8% Triton X-100, 8% glycerol; blot with anti-Tyr EB1.

Our source for the binding values is article PMC3303835.

No constants are given. Whether binding was seen depends on the method and setting. Binding seen in cells or lysates may run through a third protein. Some entries that bind do so weakly or less than the wild type. Where a sequence is shown, tags or fusion partners need not be part of it.

B1: endogenous EB1 (protein, UniProt Q61166 1-268)
chain: MAVNVYSTSVTSDNLSRHDMLAWINESLQLNLTKIEQLCSGAAYCQFMDMLFPGSIALKKVKFQAKLEHEYIQNFKILQAGFKRMGVDKIIPVDKLVKGKFQDNFEFVQWFKKFFDANYDGKEYDPVAARQGQETAVAPSLVAPALSKPKKPLGSSTAAPQRPIATQRTTAAPKAGPGMVRKNPGVGNGDDEAAELMQQVKVLKLTVEDLEKERDFYFGKLRNIELICQENEGENDPVLQRIVDILYATDEGFVIPDEGGPQEEQEEY
As to B1, the binding result is on record as “binds”.
